Measurements: patent publication US20080221039A1, “Kinin Antagonists For Treating Bladder Dysfunction” (priority 2005, published 2008)
Some of these results come from one statement about several compounds together. Square brackets hold non-standard residues; d marks the D form. Peptide text beside a SMILES is read from it. d2Nal = N[C@H](Cc1ccc2ccccc2c1)C(=O)O

Test system: rat model of acetic acid induced bladder irritation
Experiment: Rat model of acetic acid induced bladder irritation (Example 2)
Format: in vivo
Conditions: Example 2 summary, ICI and bladder capacity
Method: Groups of 5 female Wistar rats weighing 250 to 300 g anesthetized with urethane 1.2 g/kg i.p. in 5 ml/kg were used. A polyethylene catheter (PE50) was implanted into the bladder for saline or acetic acid infusion through a 3 way stopcock to which a pressure transducer is connected for measurements of bladder pressure (mm Hg). Saline at 37° C. was infused into the bladder at a constant rate until cystometrography stabilized in 60 minutes. Subsequently, 0.2% acetic acid was infused into the urinary bladder. […] The following parameters were measured continuously during baseline and for up to 1 hour post-dosing: bladder capacity (μl), intercontraction interval (ICI, in minutes, time between two voiding cycles), micturition pressure (mm Hg), micturition volume (ml, derived from the weight of excreted urine measured by a balance placed below the rat) and blood pressure (mm Hg). [table] Paired Student's test was applied for comparison between the time before (baseline) and after test substance or with vehicle treatment. To signify differences between test substance and vehicle control groups, Dunnett's test or unpair Student t test was used. Differences are considered significant at P<0.05 level.

Structure (SMILES)	time after treatment at which basal levels (before acetic acid infusion) were reached [min]
NC(N)=NCCC[C@@H](N)C(=O)N[C@@H](CCCN=C(N)N)C(=O)N1CCC[C@H]1C(=O)N1C[C@H](O)C[C@H]1C(=O)NCC(=O)N[C@@H](Cc1cccs1)C(=O)N[C@@H](CO)C(=O)N1Cc2ccccc2C[C@@H]1C(=O)N1[C@H](C(=O)N[C@@H](CCCN=C(N)N)C(=O)O)C[C@@H]2CCCC[C@@H]21 [Icatibant, H-D-Arg-Arg-Pro-Hyp-Gly-Thi-Ser-D-Tic-Oic-Arg-OH]	41 to 60
CC[C@H](C)[C@H](NC(=O)[C@@H](Cc1ccc2ccccc2c1)NC(=O)[C@H](CO)NC(=O)[C@H](Cc1ccccc1)NC(=O)CNC(=O)[C@@H]1CCCN1C(=O)[C@@H]1CCCN1C(=O)[C@H](CCCNC(=N)N)NC(=O)[C@H](CCCCN)NC(C)=O)C(=O)O [R-715, H-Ac-Lys-Arg-Pro-Pro-Gly-Phe-Ser-D-Nal-Ile-OH] (Ac-KRPPGFS[d2Nal]I-OH)	41 to 60
